In article PMC5651216, “Structural Basis for a Safety-Belt Mechanism That Anchors Condensin to Chromosomes”:
Numbering of substitutions follows the chain as printed. These are yes or no findings as the source states them, for the method shown. For some assays here: In cells and extracts the contact can be indirect. Some results given as binding are weak or reduced against the parent protein; the word gives no strength.

T1: Sc Brn1_(384–529) (S. cerevisiae) (UniProt P38170)
T1 sequence: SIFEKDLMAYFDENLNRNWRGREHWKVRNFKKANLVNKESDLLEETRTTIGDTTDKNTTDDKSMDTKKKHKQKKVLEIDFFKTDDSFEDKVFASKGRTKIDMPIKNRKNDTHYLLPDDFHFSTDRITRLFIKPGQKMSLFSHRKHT

T2: Sc Brn1_(short kleisin loop) (384-417, 445-529) (S. cerevisiae) (UniProt P38170)
T2 sequence: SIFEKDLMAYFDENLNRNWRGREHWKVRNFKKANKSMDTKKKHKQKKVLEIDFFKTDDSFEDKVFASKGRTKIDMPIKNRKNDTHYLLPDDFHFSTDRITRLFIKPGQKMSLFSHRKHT

T3: Sc Brn1-PK6 (S. cerevisiae) (UniProt P38170)
T3 sequence: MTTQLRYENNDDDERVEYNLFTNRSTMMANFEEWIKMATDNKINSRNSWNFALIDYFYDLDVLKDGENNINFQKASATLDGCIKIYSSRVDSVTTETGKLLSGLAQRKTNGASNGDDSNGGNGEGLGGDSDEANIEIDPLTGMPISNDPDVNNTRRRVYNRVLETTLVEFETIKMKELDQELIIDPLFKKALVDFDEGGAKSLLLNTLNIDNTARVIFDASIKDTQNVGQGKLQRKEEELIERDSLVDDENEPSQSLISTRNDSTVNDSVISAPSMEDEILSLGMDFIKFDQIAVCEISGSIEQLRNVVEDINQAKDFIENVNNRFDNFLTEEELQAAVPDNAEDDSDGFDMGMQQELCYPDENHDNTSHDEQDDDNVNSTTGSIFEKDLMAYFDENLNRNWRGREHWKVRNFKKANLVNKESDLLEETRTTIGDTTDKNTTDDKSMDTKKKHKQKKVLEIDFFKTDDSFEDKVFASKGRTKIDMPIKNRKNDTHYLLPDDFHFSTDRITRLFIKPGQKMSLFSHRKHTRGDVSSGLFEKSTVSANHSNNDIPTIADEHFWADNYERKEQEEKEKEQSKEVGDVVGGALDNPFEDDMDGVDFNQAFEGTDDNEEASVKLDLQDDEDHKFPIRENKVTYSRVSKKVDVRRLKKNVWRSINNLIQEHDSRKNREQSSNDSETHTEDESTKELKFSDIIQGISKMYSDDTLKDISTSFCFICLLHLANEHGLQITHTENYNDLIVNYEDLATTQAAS

T4: Sc Brn1_(BC1/2)-PK6 (S. cerevisiae) (UniProt P38170)
T4 sequence: T3 sequence with K409D, R411D, K414D, K451D, K452D, K454D, K456D, K457D

B1: Sc Ycg1_(6–498, 556–932) (domain or fragment, UniProt Q06680)
chain: GIDINTKIFNSVAEVFQKAQGSYAGHRKHIAVLKKIQSKAVEQGYEDAFNFWFDKLVTKILPLKKNEIIGDRIVKLVAAFIASLERELILAKKQNYKLTNDEEGIFSRFVDQFIRHVLRGVESPDKNVRFRVLQLLAVIMDNIGEIDESLFNLLILSLNKRIYDREPTVRIQAVFCLTKFQDEEQTEHLTELSDNEENFEATRTLVASIQNDPSAEVRRAAMLNLINDNNTRPYILERARDVNIVNRRLVYSRILKSMGRKCFDDIEPHIFDQLIEWGLEDRELSVRNACKRLIAHDWLNALDGDLIELLEKLDVSRSSVCVKAIEALFQSRPDILSKIKFPESIWKDFTVEIAFLFRAIYLYCLDNNITEMLEENFPEASKLSEHLNHYILLRYHHNDISNDSQSHFDYNTLEFIIEQLSIAAERYDYSDEVGRRSMLTVVRNMLALTTLSEPLIKIGIRVMKSLSINEKDFVTMAIEIINDIRDDDIEKQESESDIINNLPPEKEASSATIVLCLTRSSYMLELVNTPLTENILIASLMDTLITPAVRNTAPNIRELGVKNLGLCCLLDVKLAIDNMYILGMCVSKGNASLKYIALQVIVDIFSVHGNTVVDGEGKVDSISLHKIFYKVLKNNGLPECQVIAAEGLCKLFLADVFTDDDLFETLVLSYFSPINSSNEALVQAFAFCIPVYCFSHPAHQQRMSRTAADILLRLCVLWDDLQSSVIPEVDREAMLKPNIIFQQLLFWTDPRNLVNQTGSTKKDTVQLTFLIDVLKIYAQIEKKEIKKMIITNINAIFLSSEQDYSTLKELLEYSDDIAENDNLDNVSKNALDKLRNNLNSLIEEINERSETQTKDENNTANDQYSSILGN
B2: Sc Ycg1 (endogenous) (protein, UniProt Q06680 1-1035)
chain: MQDPDGIDINTKIFNSVAEVFQKAQGSYAGHRKHIAVLKKIQSKAVEQGYEDAFNFWFDKLVTKILPLKKNEIIGDRIVKLVAAFIASLERELILAKKQNYKLTNDEEGIFSRFVDQFIRHVLRGVESPDKNVRFRVLQLLAVIMDNIGEIDESLFNLLILSLNKRIYDREPTVRIQAVFCLTKFQDEEQTEHLTELSDNEENFEATRTLVASIQNDPSAEVRRAAMLNLINDNNTRPYILERARDVNIVNRRLVYSRILKSMGRKCFDDIEPHIFDQLIEWGLEDRELSVRNACKRLIAHDWLNALDGDLIELLEKLDVSRSSVCVKAIEALFQSRPDILSKIKFPESIWKDFTVEIAFLFRAIYLYCLDNNITEMLEENFPEASKLSEHLNHYILLRYHHNDISNDSQSHFDYNTLEFIIEQLSIAAERYDYSDEVGRRSMLTVVRNMLALTTLSEPLIKIGIRVMKSLSINEKDFVTMAIEIINDIRDDDIEKQEQEEKIKSKKINRRNETSVDEEDENGTHNDEVNEDEEDDNISSFHSAVENLVQGNGNVSESDIINNLPPEKEASSATIVLCLTRSSYMLELVNTPLTENILIASLMDTLITPAVRNTAPNIRELGVKNLGLCCLLDVKLAIDNMYILGMCVSKGNASLKYIALQVIVDIFSVHGNTVVDGEGKVDSISLHKIFYKVLKNNGLPECQVIAAEGLCKLFLADVFTDDDLFETLVLSYFSPINSSNEALVQAFAFCIPVYCFSHPAHQQRMSRTAADILLRLCVLWDDLQSSVIPEVDREAMLKPNIIFQQLLFWTDPRNLVNQTGSTKKDTVQLTFLIDVLKIYAQIEKKEIKKMIITNINAIFLSSEQDYSTLKELLEYSDDIAENDNLDNVSKNALDKLRNNLNSLIEEINERSETQTKDENNTANDQYSSILGNSFNKSSNDTIEHAADITDGNNTELTKTTVNISAVDNTTEQSNSRKRTRSEAEQIDTSKNLENMSIQDTSTVAKNVSFVLPDEKSDAMSIDEEDKDSESFSEVC

Columns and labels:
[1] = target: T1, Sc Brn1_(384–529) (S. cerevisiae); assay: crystal structure; Sc Ycg1–Brn1 subcomplex without DNA; hanging-drop vapor diffusion at 20°C; both purified
[2] = target: T1, Sc Brn1_(384–529) (S. cerevisiae); assay: crystal structure; Sc Ycg1–Brn1 subcomplex with a palindromic 18-bp dsDNA (1.2-fold molar excess); sitting drop at 7°C; crystal forms I and II and the short kleisin loop construct; both purified
[3] = target: T2, Sc Brn1_(short kleisin loop) (384-417, 445-529) (S. cerevisiae); assay: as above
[4] = target: T3, Sc Brn1-PK6 (S. cerevisiae); assay: co-IP; anti-PK (V5) antibody on protein A Dynabeads, lysates of yeast strains with Brn1-PK6; 50 mM TRIS–HCl pH 8.0, 100 mM NaCl, 0.25% Triton X-100; Coomassie staining or western blotting against Ycg1 or the PK6 tag
[5] = target: T4, Sc Brn1_(BC1/2)-PK6 (S. cerevisiae); assay: as above

Binder	binding [1]	binding [2]	binding [3]	binding [4]	binding [5]
B1	binds	binds	binds	–	–
B2	–	–	–	binds	binds
